Data source: PubChem BioAssay AID504774 (Drosophila RNAi Screening Center, 2011)

- Assay: 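Fly genes whose loss alters survival after alkylation damage to DNA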 (primary screen)
- System: Drosophila Kc167 cells
- Reagent: long dsRNA against Drosophila genes, about 0.25 µg dsRNA per well
- Timing: about 6 days: 3 days knock-down, then 3 days with or without MMS
- Treatment: methyl methanesulphonate 0.004% (w/v) for 3 days after knock-down
- Read-out: 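Viability in wells given MMS, read as ATP luminescence, normalised by quantiles plate by plate and averaged across replicates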
- Scale: mean viability with MMS: higher = more surviving cells after MMS
In all, the deposit lists about 23,000 reagents; this is a random part of those with a known target gene and a result. 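Values are quantile-normalised luminescence on an arbitrary scale; higher means more cells surviving MMS.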 Further read-outs or replicates are left out here. Reagent sequences are not shown.

Which result is listed for CG13309 (GeneID 39012) [DRSC09980]?
mean viability with MMS: 3.41e6

What did the screen give for NSD (GeneID 43351) [DRSC15691]?
mean viability with MMS: 3.47e6

With FASN2 (GeneID 117361) [DRSC00167], what does the deposit list?
mean viability with MMS: 3.45e6

How did the screen score FASN2 (GeneID 117361) [DRSC00610]?
mean viability with MMS: 3.59e6

Which result is listed for CG12219 (GeneID 31572) [DRSC17829]?
mean viability with MMS: 3.55e6

For LUBEL (GeneID 33950) [DRSC02141], how do the results read?
mean viability with MMS: 3.36e6

How did the screen score CG13891 (GeneID 38066) [DRSC08361]?
mean viability with MMS: 3.59e6

For CG10347 (GeneID 32141) [DRSC19352], what does the deposit list?
mean viability with MMS: 3.69e6

How did the screen score CG10887 (GeneID 42399) [DRSC14277]?
mean viability with MMS: 3.64e6

For Grip91 (GeneID 48481) [DRSC20249], what does the deposit list?
mean viability with MMS: 3.31e6

What did the screen give for prel (GeneID 35969) [DRSC07271]?
mean viability with MMS: 3.75e6

For ND-75 (GeneID 31762) [DRSC18686], how do the results read?
mean viability with MMS: 3.36e6

For CG33333 (GeneID 2768672) [DRSC13233], what does the deposit list?
mean viability with MMS: 3.66e6

With CG15818 (GeneID 34019) [DRSC02505], how do the results read?
mean viability with MMS: 3.76e6

With CG14839 (GeneID 41736) [DRSC14963], what does the deposit list?
mean viability with MMS: 3.77e6

With Dbp73D (GeneID 39871) [DRSC11142], what does the deposit list?
mean viability with MMS: 3.56e6

What did the screen give for Lcp1Psi (GeneID 3772468) [DRSC05105]?
mean viability with MMS: 3.34e6

How did the screen score Art1 (GeneID 41295) [DRSC16063]?
mean viability with MMS: 3.48e6

What is on record for CG31178 (GeneID 42575) [DRSC14590]?
mean viability with MMS: 3.62e6

What did the screen give for Vps28 (GeneID 47408) [DRSC06168]?
mean viability with MMS: 3.45e6

With CG33469 (GeneID 2768832) [DRSC22900], how do the results read?
mean viability with MMS: 3.54e6

What is on record for brv1 (GeneID 40116) [DRSC11076]?
mean viability with MMS: 3.63e6

For w-cup (GeneID 34455) [DRSC03048], what does the deposit list?
mean viability with MMS: 3.39e6

For Tes (GeneID 36965) [DRSC06996], what was measured?
mean viability with MMS: 3.57e6

What did the screen give for CG30183 (GeneID 37749) [DRSC04450]?
mean viability with MMS: 3.51e6

What is on record for CG30183 (GeneID 37749) [DRSC04472]?
mean viability with MMS: 3.47e6

For mio (GeneID 33399) [DRSC00692], what was measured?
mean viability with MMS: 3.12e6

What is on record for mio (GeneID 33399) [DRSC22056]?
mean viability with MMS: 3.31e6

How did the screen score PIG-F (GeneID 40139) [DRSC11069]?
mean viability with MMS: 3.84e6

How did the screen score CG33061 (GeneID 318838) [DRSC09938]?
mean viability with MMS: 3.66e6

With CG33061 (GeneID 318838) [DRSC22897], what was measured?
mean viability with MMS: 3.47e6

What did the screen give for CG14762 (GeneID 35768) [DRSC05073]?
mean viability with MMS: 3.58e6

For CG14762 (GeneID 35768) [DRSC06496], what does the deposit list?
mean viability with MMS: 3.57e6

With CG10470 (GeneID 35174) [DRSC02061], what was measured?
mean viability with MMS: 3.51e6

For CG12728 (GeneID 31526) [DRSC17883], what does the deposit list?
mean viability with MMS: 3.61e6
